Experiment [1] deals with Flag-tagged HRS (a.a. 275–777), lacking the UIM (UniProt O14964). Kind of experiment: co-IP; cells expressing PD-L1 and Flag-tagged full-length HRS or fragments; anti-Flag immunoprecipitation; western blot of bound PD-L1. Background: In western blotting, separated proteins are transferred to a membrane and probed.
Experiment [2] deals with Flag-tagged full-length HRS (domain mapping, Fig. 3j) (UniProt O14964). The experiment is described as above.
In experiment [3] the target is 3×Flag-tagged HRS S345A (phospho-deficient mutant) (UniProt O14964). The experiment can be described thus: co-IP; WM9 cells stably expressing Flag-tagged HRS^WT, HRS^S345A or HRS^S345D; anti-Flag immunoprecipitation from NP-40 lysate (25 mM HEPES-KOH pH 7.4, 100 mM KCl, 5 mM MgCl2, 1% NP-40), 2 hr at 4 °C; western blot.
The target of experiment [4] is 3×Flag-tagged wild-type HRS (hepatocyte growth factor-regulated tyrosine kinase substrate) (UniProt O14964). The description is as above.
For experiment [5], the target named is 3×Flag-tagged HRS S345D (phospho-mimetic mutant) (UniProt O14964). The experiment is described as above.

Sequences of proteins named here, by UniProt entry; tags and fusion partners are left off. A change or cut given only in a name is not applied to a line headed by its entry. A line that says so, or that is headed by a name, gives the form on record, which may keep a tag or linker. Residues count along the entry.
UniProt O14964: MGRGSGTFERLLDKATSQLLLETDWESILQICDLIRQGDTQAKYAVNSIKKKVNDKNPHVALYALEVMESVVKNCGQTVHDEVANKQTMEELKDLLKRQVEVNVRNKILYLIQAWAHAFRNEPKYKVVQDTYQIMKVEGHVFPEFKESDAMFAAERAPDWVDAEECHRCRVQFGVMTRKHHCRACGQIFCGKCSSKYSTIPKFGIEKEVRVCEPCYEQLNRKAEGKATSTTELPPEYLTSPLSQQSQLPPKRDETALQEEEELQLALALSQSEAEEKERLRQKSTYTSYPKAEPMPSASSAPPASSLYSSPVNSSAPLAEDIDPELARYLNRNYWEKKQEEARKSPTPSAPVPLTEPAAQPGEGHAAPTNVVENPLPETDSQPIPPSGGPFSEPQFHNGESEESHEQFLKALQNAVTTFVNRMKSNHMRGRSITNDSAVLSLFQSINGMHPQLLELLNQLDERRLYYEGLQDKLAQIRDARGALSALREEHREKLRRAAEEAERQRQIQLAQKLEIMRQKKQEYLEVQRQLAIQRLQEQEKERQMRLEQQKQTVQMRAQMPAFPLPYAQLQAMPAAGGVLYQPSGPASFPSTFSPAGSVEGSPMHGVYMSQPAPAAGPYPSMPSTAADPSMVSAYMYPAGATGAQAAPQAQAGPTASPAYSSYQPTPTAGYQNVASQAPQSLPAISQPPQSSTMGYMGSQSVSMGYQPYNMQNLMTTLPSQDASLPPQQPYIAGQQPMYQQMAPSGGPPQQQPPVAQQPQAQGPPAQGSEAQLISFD
Flag-tagged HRS (a.a. 275–777), lacking the UIM: residues 275-777 of O14964
UniProt Q9NZQ7, residues 19-290: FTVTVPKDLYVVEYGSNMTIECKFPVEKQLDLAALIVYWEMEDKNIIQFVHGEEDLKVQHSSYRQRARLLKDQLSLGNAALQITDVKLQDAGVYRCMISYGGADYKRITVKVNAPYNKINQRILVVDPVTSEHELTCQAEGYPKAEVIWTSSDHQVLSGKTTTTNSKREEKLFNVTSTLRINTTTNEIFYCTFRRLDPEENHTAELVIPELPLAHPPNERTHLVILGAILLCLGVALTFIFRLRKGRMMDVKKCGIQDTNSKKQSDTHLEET
UniProt Q92783: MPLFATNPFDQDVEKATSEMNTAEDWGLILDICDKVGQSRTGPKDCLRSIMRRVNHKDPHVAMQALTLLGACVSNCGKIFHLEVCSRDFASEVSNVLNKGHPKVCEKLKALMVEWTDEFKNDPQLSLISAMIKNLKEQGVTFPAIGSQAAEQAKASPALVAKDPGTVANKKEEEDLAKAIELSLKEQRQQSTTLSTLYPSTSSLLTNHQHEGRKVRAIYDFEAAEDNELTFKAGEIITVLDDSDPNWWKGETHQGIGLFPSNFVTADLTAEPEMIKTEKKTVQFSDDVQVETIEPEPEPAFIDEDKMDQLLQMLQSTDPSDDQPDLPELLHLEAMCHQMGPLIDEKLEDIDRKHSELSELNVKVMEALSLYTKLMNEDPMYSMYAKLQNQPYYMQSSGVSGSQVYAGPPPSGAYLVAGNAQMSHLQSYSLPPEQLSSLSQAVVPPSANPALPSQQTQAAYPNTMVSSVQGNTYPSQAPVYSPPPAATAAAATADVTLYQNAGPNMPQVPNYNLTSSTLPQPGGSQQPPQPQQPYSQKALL

These are yes or no findings as the source states them, for the method shown. Binding seen in cells or lysates may run through a third protein. Some entries that bind do so weakly or less than the wild type.

On to “PD-L1 (expressed together with Flag-HRS constructs, Fig. 3j) (from UniProt Q9NZQ7 19-290)”, for which the binding result in experiment [1] and in experiment [2] was “binds” throughout.
With “STAM (endogenous in WM9 cells) (from UniProt Q92783 1-540)”, the binding entry in experiment [3], in experiment [4] and in experiment [5] was “binds” throughout.
Consider “PD-L1 (endogenous in WM9 cells) (from UniProt Q9NZQ7 19-290)”, for which the binding entry in experiment [3], in experiment [4] and in experiment [5] was “binds” each time.

Values taken from article PMC9283393.
